This is an account of results in PubChem BioAssay AID651803 (National Center for Advancing Translational Sciences (NCATS), 2012).

Chains of the proteins cited; added tags and fusions are not shown. Lines headed by an entry give the natural chain unless they say otherwise; changes in a name come on top.
UniProt P11308: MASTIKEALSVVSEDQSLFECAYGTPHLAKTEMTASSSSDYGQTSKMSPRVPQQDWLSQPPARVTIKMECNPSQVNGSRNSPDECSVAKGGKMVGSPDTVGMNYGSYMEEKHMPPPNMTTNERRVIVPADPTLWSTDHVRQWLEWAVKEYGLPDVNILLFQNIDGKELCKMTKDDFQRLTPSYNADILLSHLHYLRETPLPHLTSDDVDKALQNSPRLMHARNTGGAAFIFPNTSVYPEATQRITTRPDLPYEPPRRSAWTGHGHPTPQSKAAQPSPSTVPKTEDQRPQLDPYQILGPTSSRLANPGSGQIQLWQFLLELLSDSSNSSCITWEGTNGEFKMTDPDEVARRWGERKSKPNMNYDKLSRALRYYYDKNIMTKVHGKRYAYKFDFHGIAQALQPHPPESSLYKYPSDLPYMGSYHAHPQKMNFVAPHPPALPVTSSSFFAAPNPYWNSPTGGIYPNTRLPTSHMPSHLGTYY

The campaign covered roughly 1,200 compounds. Fewer than 10 were called active. Calls follow the shape of the dose curve; as a rule, active = well fitted curve in the direction sought with a large enough effect; inconclusive = small, poorly fitted or top-dose-only effect, or another doubt; inactive = no such curve, though single readings can be large or run the other way. The list shows a part of the results.

The target in this assay is Transcriptional regulator ERG (Homo sapiens) (UniProt P11308). As to the kind of experiment: qHTS for Small Molecule Inhibitors of the ERG Ets/DNA interaction: TR assay against cherry picks. Also: % of control where 0% means no effect. Conditions: ERG Ets domain-DNA fluorescence polarization, Texas red probe; at 154 µM (top of the series). The method in brief: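 Polarization read sequentially for fluorescein (ex 480/em 535 nm) and Texas red (ex 555/em 632 nm) probes, 5 nM and 100 nM solutions, displaced from His-ERG Ets domain (1 uM solution), pH 7.5 Tris/KCl/EDTA/DTT buffer.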
For orientation: Quantitative high-throughput screening tests each substance at several concentrations.
Take `O=C(NC1CCCCC1)C(c1ccc(O)cc1)N(C(=O)c1cnccn1)c1cccc(F)c1` (stereo unspecified): the activity change, negative = inhibition is inactive: -0.587%.

Regarding `CCOC(=O)c1cnc2ccc(OC)cc2c1Nc1ccc(N2CCN(C)CC2)cc1`, the activity change, negative = inhibition was inactive: -8.5%.

As to `Cc1csc(=O)n1CCC(=O)OCC(=O)Nc1ncc(Cl)cc1Cl`, the activity change, negative = inhibition was inactive: -0.888%.

In the case of `COc1cc(S(C)=O)ccc1-c1nc2ncccc2[nH]1` (stereo unspecified), the activity change, negative = inhibition is inactive: 3.44%.

In the case of `Cn1c(CNC(=O)c2cccs2)n[nH]c1=S`, the activity change, negative = inhibition is inactive: 5.98%.

For the molecule `COC(=O)N/N=C/c1cccs1`, the activity change, negative = inhibition was inactive: -5.32%.

For `Cc1cc(C(C)(C)C)c(O)c(C)c1CC1=NCCN1`, the activity change, negative = inhibition is inactive: 3.64%.

For `O=S(=O)(NC1CCCCC1)c1ccc(Br)s1`, the activity change, negative = inhibition is inactive: -2.71%.

`CC(C)COC(=O)/C(C#N)=C/c1c[nH]c2ccccc12`: the activity change, negative = inhibition is inactive: 1.44%.

Regarding `Nc1cccc2nc3ccccc3cc12`, the activity change, negative = inhibition is inactive: -3.2%.

Turning to `O=C(NCC1CCCO1)C1CC(=O)N(c2ccc(Cl)cc2)C1` (stereo unspecified), the activity change, negative = inhibition was inactive: 5.06%.

Take `COC(=O)c1ccc(COc2ccccc2[N+](=O)[O-])o1`: the activity change, negative = inhibition was inactive: -10.7%.

Regarding `CCCCCCCN=CC1=C(O)CC(c2ccccc2)CC1=O` (stereo unspecified), the activity change, negative = inhibition is inactive: 2.46%.

Turning to `COC(=O)c1c(C(=O)OC)c(-c2ccc(OC)cc2)n2c1CS(=O)C2` (stereo unspecified), the activity change, negative = inhibition is inactive: 4.12%.

Turning to `Cc1cc(C)c2c(N)c(C(=O)c3ccc(Cl)cc3)sc2n1`, the activity change, negative = inhibition was inactive: 5.05%.

For the molecule `N#C/C(=C/c1ccc(N2CCCCC2)o1)C(=O)NCCc1c[nH]c2ccccc12`, the activity change, negative = inhibition is inactive: 27.7%.

In the case of `Nn1cnnc1N/N=C/c1cccc(Cl)c1Cl`, the activity change, negative = inhibition is inactive: 3.27%.

As for `CCOc1ccc2nc(SCC(=O)c3ccc(C)s3)sc2c1`, the activity change, negative = inhibition is inactive: 2.47%.

In the case of `COc1cc(OC)cc(C(=O)NCC(=O)OCc2csc(-c3ccccc3)n2)c1`, the activity change, negative = inhibition was inactive: -2.77%.

`Cc1ncc([N+](=O)[O-])n1CC(=O)N/N=C/c1ccc(F)cc1`: the activity change, negative = inhibition is inactive: -3.78%.

For the molecule `Cc1sc2nc(CSC(C)C(=O)Nc3ccc(C(N)=O)cc3)[nH]c(=O)c2c1C` (stereo unspecified), the activity change, negative = inhibition was inactive: -3%.

For `CCC(C)NCCCOc1ccc(C)cc1OC` (stereo unspecified), the activity change, negative = inhibition was inactive: -4.22%.

With `Nc1ccccc1-n1cccc1`, the activity change, negative = inhibition is inactive: 3.9%.

For `Cc1nn(C2CCS(=O)(=O)C2)c(Cl)c1/C=C/C(=O)OCC(=O)c1c[nH]c2ccccc12` (stereo unspecified), the activity change, negative = inhibition is inactive: -5.66%.

As for `Cc1ccc(N(Cc2cc(=O)[nH]c3ccccc23)C(=O)CCl)c(C)c1`, the activity change, negative = inhibition is inactive: -9.63%.

On to `COc1cc([N+](=O)[O-])cc2sc(NC(=O)c3c(F)cccc3F)nc12`, for which the activity change, negative = inhibition is inactive: -4.41%.

Turning to `S=C(NCc1ccccc1)Nc1cccc(Cl)c1`, the activity change, negative = inhibition is inactive: 3.35%.

Consider `CCOc1ccccc1CNc1ccc(O)cc1`, for which the activity change, negative = inhibition is inactive: 1.21%.

Take `Oc1ccc(NCc2ccccc2OCc2ccc(Cl)cc2)cc1`: the activity change, negative = inhibition was inactive: 8.24%.

For the molecule `COc1ccc(NC(=O)CSCC(=O)N(C)Cc2cccc(OC)c2OC)cc1`, the activity change, negative = inhibition was inactive: 1.32%.

For `CC(C)[C@H](NS(=O)(=O)c1ccccc1F)C(=O)NC1CCCCC1`, the activity change, negative = inhibition is inactive: -1.28%.

`CCOC(=O)C1(CCc2ccccc2)CCN(C(=O)[C@@H]2C[C@@H](C)NC(=S)N2)CC1`: the activity change, negative = inhibition was inactive: 15.7%.

In the case of `NC(=O)Nc1ccc(C(=O)OCC(=O)NC2CCCc3ccccc32)cc1` (stereo unspecified), the activity change, negative = inhibition was inactive: -13.4%.

On to `COc1ccc(NC(=O)c2ccc(NC(=O)c3nc4nccc(C)n4n3)cc2)cc1`, for which the activity change, negative = inhibition is inactive: 9.11%.

As to `COc1cc(/C=N/N2C(=O)C3C4C=CC(CC4)C3C2=O)ccc1O` (stereo unspecified), the activity change, negative = inhibition is inactive: -7.44%.

On to `COc1ccc(C(c2c(C)n(C)n(-c3ccccc3)c2=O)c2c(C)n(C)n(-c3ccccc3)c2=O)c(OC)c1OC`, for which the activity change, negative = inhibition is inactive: 1.81%.

Consider `CN(C)c1nc2n(c(=S)n1)CCS2`, for which the activity change, negative = inhibition was inactive: -12.7%.

Consider `COc1ccccc1C/C(N)=N/OC(=O)COc1ccc(C)cc1C`, for which the activity change, negative = inhibition is inactive: 6.17%.

For `CC(=O)Nc1ccc(NC(=O)Cn2c(=O)n(-c3ccccc3)c(=O)c3oc4ccccc4c32)cc1`, the activity change, negative = inhibition is inactive: 0.864%.

With `O=C(COc1ccc(F)cc1)Nc1nnc(-c2ccncc2)s1`, the activity change, negative = inhibition was inactive: -8.56%.

For `CCn1ccc2c(OCC(=O)Nc3ccc(C(C)=O)cc3)cccc2c1=O`, the activity change, negative = inhibition is inactive: -2.76%.

Regarding `CCN1CCN(CCCNC(=O)C2CCN(c3nnc(-n4cccc4)s3)CC2)CC1`, the activity change, negative = inhibition was inactive: -2.91%.

For the molecule `C#CCn1c(CCNC(=O)c2ccco2)nc2ccccc21`, the activity change, negative = inhibition was inactive: 1.03%.

Turning to `C/C(=N\NC(=O)c1ccc(CSc2nc(C)cc(C)n2)cc1)c1ccco1`, the activity change, negative = inhibition is inactive: -6.9%.

Turning to `CN(C)C(=O)c1ccc(NC(=O)COc2ccc([N+](=O)[O-])cc2)cc1`, the activity change, negative = inhibition is inactive: -5.46%.

On to `Cc1ccccc1OCc1nnc(SCC(=O)Nc2ccc(N3CCOCC3)c(Cl)c2)n1C`, for which the activity change, negative = inhibition was inactive: -15.8%.

Turning to `CC(=O)N1CCN(c2nnc(-c3ccccc3)c3ccccc23)CC1`, the activity change, negative = inhibition was inactive: -6.94%.

Turning to `CCCCN(CC)CCCNC(=S)Nc1ccc2nc(N3CCN(C)CC3)cc(C)c2c1`, the activity change, negative = inhibition is inactive: -19.3%.

On to `COCCNC(=O)CSc1nc2ccccc2c(=O)n1-c1cccc(OC)c1`, for which the activity change, negative = inhibition was inactive: -10.6%.

For the molecule `CCc1nn2c(=O)cc(CSCC(=O)Nc3ccccc3F)nc2s1`, the activity change, negative = inhibition is inactive: 0.547%.

On to `Fc1cccc(NC(=S)N2CCN(c3ccccn3)CC2)c1`, for which the activity change, negative = inhibition is inactive: 6.51%.

On to `Cc1noc(C)c1CSCC(=O)Nc1cc(S(=O)(=O)N2CCOCC2)ccc1OC(C)C`, for which the activity change, negative = inhibition is inactive: 4.53%.

Turning to `CCC(Sc1nccn1C)C(=O)Nc1ccc(Cl)cn1` (stereo unspecified), the activity change, negative = inhibition is inactive: 0.0641%.

On to `CCn1nc(C)c(CNC(=O)c2cc(COc3ccccc3SC)on2)c1C`, for which the activity change, negative = inhibition is inactive: -12.1%.

For the molecule `COC(OC)c1nc(SCC(=O)Nc2cccc(Cl)c2)ncc1C(=O)O`, the activity change, negative = inhibition is inactive: 4.07%.

Regarding `CC(C)N=c1cc2n(-c3ccc(Cl)cc3)c3ccccc3nc-2cc1Nc1ccc(Cl)cc1`, the activity change, negative = inhibition is inactive: 4.41%.

For the molecule `CC(C)CN=CC1=C(O)c2ccccc2C1=O`, the activity change, negative = inhibition is inactive: 1.63%.

As to `COc1cc(/C=C2/SC(=O)NC2=O)ccc1OC(=O)c1ccco1`, the activity change, negative = inhibition is inactive: -5.95%.

Take `CC(CCC(=O)O)C1CCC2C3C(O)CC4CC(O)CCC4(C)C3CC(O)C12C` (stereo unspecified): the activity change, negative = inhibition is inactive: -8.1%.

For the molecule `O=C(N/N=C/c1cccs1)c1cccs1`, the activity change, negative = inhibition was inactive: -19.9%.

On to `CC(C)NC(=O)Cn1cnc2c(cnn2-c2ccc(F)cc2)c1=O`, for which the activity change, negative = inhibition was inactive: 1.86%.
